The source of these data is paper doi:10.1101/2024.06.07.596575.

Amino acid sequences for entries named in this document (tags omitted). Residues count along the entry.
UniProt P02649, residues 19-317: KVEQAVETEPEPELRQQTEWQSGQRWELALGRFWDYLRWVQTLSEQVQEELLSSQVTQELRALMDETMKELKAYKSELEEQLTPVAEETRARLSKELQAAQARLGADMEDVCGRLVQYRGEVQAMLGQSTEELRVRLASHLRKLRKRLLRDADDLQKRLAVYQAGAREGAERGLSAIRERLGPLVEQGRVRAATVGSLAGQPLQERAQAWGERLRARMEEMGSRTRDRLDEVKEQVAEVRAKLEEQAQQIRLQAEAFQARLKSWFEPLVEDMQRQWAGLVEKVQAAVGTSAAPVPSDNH

No constants are given. Whether binding was seen depends on the method and setting. For some of these results: Binding seen in cells or lysates may run through a third protein. Some results given as binding are weak or reduced against the parent protein; the word gives no strength. For some of these results: Tags and fused reporters may be left off the sequences shown.

For one assay, the target named is T1, GFP11-mCLCC1 (mouse) (UniProt Q99LI2).
T1 sequence: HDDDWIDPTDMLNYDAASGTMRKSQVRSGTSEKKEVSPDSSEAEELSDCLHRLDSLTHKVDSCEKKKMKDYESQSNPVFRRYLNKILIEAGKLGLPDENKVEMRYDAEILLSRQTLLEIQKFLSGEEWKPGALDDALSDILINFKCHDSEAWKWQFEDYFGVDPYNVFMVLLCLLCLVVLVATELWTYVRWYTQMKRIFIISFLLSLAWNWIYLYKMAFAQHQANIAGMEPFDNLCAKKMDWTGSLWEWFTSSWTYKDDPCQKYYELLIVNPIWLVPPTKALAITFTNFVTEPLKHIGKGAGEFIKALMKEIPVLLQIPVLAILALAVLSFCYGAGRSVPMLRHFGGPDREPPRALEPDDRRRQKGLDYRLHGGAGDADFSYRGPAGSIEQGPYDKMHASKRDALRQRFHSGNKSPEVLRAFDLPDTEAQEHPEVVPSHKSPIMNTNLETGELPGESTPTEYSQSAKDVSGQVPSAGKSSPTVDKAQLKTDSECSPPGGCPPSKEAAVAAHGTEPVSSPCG
Nature of the assay: split reporter.

The target of another assay is T2, twin-StrepTagII-TMEM41B (UniProt Q5BJD5).
T2 sequence: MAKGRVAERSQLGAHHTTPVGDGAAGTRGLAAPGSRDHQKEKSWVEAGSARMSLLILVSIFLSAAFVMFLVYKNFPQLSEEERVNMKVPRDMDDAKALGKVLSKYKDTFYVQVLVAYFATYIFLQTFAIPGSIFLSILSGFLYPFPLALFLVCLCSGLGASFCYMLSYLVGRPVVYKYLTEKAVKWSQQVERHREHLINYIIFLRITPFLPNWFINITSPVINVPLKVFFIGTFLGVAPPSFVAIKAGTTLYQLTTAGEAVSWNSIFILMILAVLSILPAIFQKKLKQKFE
Nature of the assay: tandem affinity purification.

Assay [1] deals with T3, endogenous TMEM41B (Huh7 cells) (human (endogenous in Huh7)) (UniProt Q5BJD5).
T3 sequence: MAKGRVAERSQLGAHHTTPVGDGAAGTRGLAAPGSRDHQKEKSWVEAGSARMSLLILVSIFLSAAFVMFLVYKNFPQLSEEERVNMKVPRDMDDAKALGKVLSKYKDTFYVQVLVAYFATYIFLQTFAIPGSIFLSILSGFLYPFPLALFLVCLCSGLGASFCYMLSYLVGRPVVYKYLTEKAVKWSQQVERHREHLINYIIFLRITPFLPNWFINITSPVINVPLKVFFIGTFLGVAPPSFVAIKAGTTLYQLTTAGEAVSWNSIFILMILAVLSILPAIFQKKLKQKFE
Nature of the assay: co-IP.

The target in assay [2] is endogenous CLCC1 (mouse liver membranes and geLDs) (mouse (endogenous in liver)) (UniProt Q99LI2). Nature of the assay: native gel or EMSA. On the technique in general: Mobility shift assays separate free from complexed probe on a gel.

For the molecule “ApoE-GFP1-10 (from UniProt P02649 19-317)”, the binding entry with GFP11-mCLCC1 (mouse) was “binds”.

B1: CLCC1-FLAG (chloride channel CLIC like 1) (protein, UniProt Q96S66 19-551)
chain: HDDDWIDPTDMLNYDAASGTMRKSQAKYGISGEKDVSPDLSCADEISECYHKLDSLTYKIDECEKKKREDYESQSNPVFRRYLNKILIEAGKLGLPDENKGDMHYDAEIILKRETLLEIQKFLNGEDWKPGALDDALSDILINFKFHDFETWKWRFEDSFGVDPYNVLMVLLCLLCIVVLVATELWTYVRWYTQLRRVLIISFLFSLGWNWMYLYKLAFAQHQAEVAKMEPLNNVCAKKMDWTGSIWEWFRSSWTYKDDPCQKYYELLLVNPIWLVPPTKALAVTFTTFVTEPLKHIGKGTGEFIKALMKEIPALLHLPVLIIMALAILSFCYGAGKSVHVLRHIGGPESEPPQALRPRDRRRQEEIDYRPDGGAGDADFHYRGQMGPTEQGPYAKTYEGRREILRERDVDLRFQTGNKSPEVLRAFDVPDAEAREHPTVVPSHKSPVLDTKPKETGGILGEGTPKESSTESSQSAKPVSGQDTSGNTEGSPAAEKAQLKSEAAGSPDQGSTYSPARGVAGPRGQDPVSSPCG
Turning to B1, the binding entry with twin-StrepTagII-TMEM41B was “binds”.

B2: endogenous CLCC1 (Huh7 cells) (protein, UniProt Q96S66 19-551)
chain: HDDDWIDPTDMLNYDAASGTMRKSQAKYGISGEKDVSPDLSCADEISECYHKLDSLTYKIDECEKKKREDYESQSNPVFRRYLNKILIEAGKLGLPDENKGDMHYDAEIILKRETLLEIQKFLNGEDWKPGALDDALSDILINFKFHDFETWKWRFEDSFGVDPYNVLMVLLCLLCIVVLVATELWTYVRWYTQLRRVLIISFLFSLGWNWMYLYKLAFAQHQAEVAKMEPLNNVCAKKMDWTGSIWEWFRSSWTYKDDPCQKYYELLLVNPIWLVPPTKALAVTFTTFVTEPLKHIGKGTGEFIKALMKEIPALLHLPVLIIMALAILSFCYGAGKSVHVLRHIGGPESEPPQALRPRDRRRQEEIDYRPDGGAGDADFHYRGQMGPTEQGPYAKTYEGRREILRERDVDLRFQTGNKSPEVLRAFDVPDAEAREHPTVVPSHKSPVLDTKPKETGGILGEGTPKESSTESSQSAKPVSGQDTSGNTEGSPAAEKAQLKSEAAGSPDQGSTYSPARGVAGPRGQDPVSSPCG
Take B2: the binding result in assay [1] is “binds”.

B3: endogenous CLCC1 (mouse liver membranes and geLDs) (protein, UniProt Q99LI2 19-539)
chain: HDDDWIDPTDMLNYDAASGTMRKSQVRSGTSEKKEVSPDSSEAEELSDCLHRLDSLTHKVDSCEKKKMKDYESQSNPVFRRYLNKILIEAGKLGLPDENKVEMRYDAEILLSRQTLLEIQKFLSGEEWKPGALDDALSDILINFKCHDSEAWKWQFEDYFGVDPYNVFMVLLCLLCLVVLVATELWTYVRWYTQMKRIFIISFLLSLAWNWIYLYKMAFAQHQANIAGMEPFDNLCAKKMDWTGSLWEWFTSSWTYKDDPCQKYYELLIVNPIWLVPPTKALAITFTNFVTEPLKHIGKGAGEFIKALMKEIPVLLQIPVLAILALAVLSFCYGAGRSVPMLRHFGGPDREPPRALEPDDRRRQKGLDYRLHGGAGDADFSYRGPAGSIEQGPYDKMHASKRDALRQRFHSGNKSPEVLRAFDLPDTEAQEHPEVVPSHKSPIMNTNLETGELPGESTPTEYSQSAKDVSGQVPSAGKSSPTVDKAQLKTDSECSPPGGCPPSKEAAVAAHGTEPVSSPCG
With B3, in assay [2], the binding result was “binds”.
